Test results taken from doi:10.1101/2023.12.19.572309 (bioRxiv, 2023).
These are yes or no findings as the source states them, for the method shown. For some of these results: In cells and extracts the contact can be indirect. Some binding calls cover weakened binding; strength is not graded here.

Amino acid sequences for entries named in this document (tags omitted). A change or cut given only in a name is not applied to a line headed by its entry. Chains listed by the source or under a name are the forms on record and can include a tag or linker. Residues count along the entry.
UniProt Q676U5: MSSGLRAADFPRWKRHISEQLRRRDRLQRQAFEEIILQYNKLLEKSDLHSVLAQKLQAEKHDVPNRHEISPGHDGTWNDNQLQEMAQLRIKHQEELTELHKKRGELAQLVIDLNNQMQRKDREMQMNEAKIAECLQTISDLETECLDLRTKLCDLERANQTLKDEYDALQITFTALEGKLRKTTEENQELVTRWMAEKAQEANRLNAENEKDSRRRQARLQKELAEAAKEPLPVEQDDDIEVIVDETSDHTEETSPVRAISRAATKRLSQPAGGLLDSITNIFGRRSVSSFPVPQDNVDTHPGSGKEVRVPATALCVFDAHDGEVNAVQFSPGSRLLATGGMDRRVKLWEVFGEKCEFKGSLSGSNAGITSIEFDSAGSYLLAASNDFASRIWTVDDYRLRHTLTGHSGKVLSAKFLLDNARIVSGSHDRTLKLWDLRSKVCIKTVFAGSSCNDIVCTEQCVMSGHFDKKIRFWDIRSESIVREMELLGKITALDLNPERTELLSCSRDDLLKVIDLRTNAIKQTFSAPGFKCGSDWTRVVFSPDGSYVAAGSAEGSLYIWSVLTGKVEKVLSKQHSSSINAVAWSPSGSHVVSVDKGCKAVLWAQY
UniProt Q9UI12: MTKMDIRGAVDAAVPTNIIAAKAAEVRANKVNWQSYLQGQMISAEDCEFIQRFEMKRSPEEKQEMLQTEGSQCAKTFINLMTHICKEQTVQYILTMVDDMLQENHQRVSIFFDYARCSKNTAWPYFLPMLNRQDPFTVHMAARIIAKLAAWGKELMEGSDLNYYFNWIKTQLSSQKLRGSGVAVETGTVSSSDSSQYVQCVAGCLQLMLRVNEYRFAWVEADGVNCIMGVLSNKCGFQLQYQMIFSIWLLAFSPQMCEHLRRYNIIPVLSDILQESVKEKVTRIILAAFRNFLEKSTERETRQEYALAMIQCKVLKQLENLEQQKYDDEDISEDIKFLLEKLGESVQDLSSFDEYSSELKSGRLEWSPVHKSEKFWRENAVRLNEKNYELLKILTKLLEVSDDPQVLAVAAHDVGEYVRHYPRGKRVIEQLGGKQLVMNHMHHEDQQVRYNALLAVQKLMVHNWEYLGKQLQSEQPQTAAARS
V1H(1-351)-FLAG: residues 1-351 of Q9UI12
short V1H-FLAG (lacking exon 7) (Q9UI12, form named): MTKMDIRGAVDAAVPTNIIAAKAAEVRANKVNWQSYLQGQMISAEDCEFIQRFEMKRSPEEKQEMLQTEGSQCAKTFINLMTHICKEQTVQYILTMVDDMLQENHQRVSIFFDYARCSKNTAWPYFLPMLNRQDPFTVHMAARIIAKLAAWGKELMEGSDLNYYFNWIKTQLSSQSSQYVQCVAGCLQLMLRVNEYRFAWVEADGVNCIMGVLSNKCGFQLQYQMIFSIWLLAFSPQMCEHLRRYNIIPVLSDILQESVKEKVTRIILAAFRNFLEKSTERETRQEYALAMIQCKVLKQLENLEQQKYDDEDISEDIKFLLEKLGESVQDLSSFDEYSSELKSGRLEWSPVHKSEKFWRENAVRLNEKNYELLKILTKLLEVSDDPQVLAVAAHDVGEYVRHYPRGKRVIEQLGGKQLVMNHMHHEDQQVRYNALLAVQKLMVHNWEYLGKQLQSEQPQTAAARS

Tests used:
[1] = molecular target: ATG16L1 (recombinant, within the ATG16L1-(StrepII^2x)ATG5–ATG12 complex) (UniProt Q676U5); assay: cross-linking
V1H(1-351)-FLAG (human) = V1H(1-351)-FLAG (human) (UniProt Q9UI12); assay: co-IP
[2] = molecular target: short V1H-FLAG (lacking exon 7) (human) (UniProt Q9UI12); assay: co-IP
[3] = molecular target: V1H-FLAG (full length human V1H, transcript variant 1) (human) (UniProt Q9UI12); assay: co-IP

V-ATPase V1H subunit (endogenous, within the purified SidK/V-ATPase) (from UniProt Q9UI12 1-483)
binding [1]: binds

endogenous ATG16L1 (from UniProt Q676U5 1-607)
binding (V1H(1-351)-FLAG (human)): binds
binding [2]: binds
binding [3]: binds
